# Assay results reported in the M2OR odorant receptor database.
# The list shows a part of the results. Calls are pooled over several reports, among them a noisy single-well screen.
# Tested on: T1, O10A4
# T1 sequence (whole entry): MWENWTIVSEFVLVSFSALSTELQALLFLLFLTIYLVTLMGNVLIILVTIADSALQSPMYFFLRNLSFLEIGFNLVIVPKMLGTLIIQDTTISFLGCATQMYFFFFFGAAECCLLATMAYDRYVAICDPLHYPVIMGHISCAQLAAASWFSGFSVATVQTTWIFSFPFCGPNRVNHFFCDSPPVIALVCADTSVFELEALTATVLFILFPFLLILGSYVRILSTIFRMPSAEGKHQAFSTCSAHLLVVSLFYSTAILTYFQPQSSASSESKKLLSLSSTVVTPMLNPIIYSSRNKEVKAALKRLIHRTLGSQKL
# Conditions: stereoisomer not certain
# Procedure, shortened: (§1)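 Each receptor–molecule pair is labelled responsive or non-responsive (inactive) according to whether the original authors judged the measured signal statistically different from baseline. The data were taken from the main text and supplementary material of published papers and checked for typos and inconsistencies. Assay methods differed by source, with transient luciferase assays in mammalian cell lines being common.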
# 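Also: active if original authors judged signal statistically different from baseline.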
row,SMILES,odorant receptor agonist call
1,CCCCCCOC(=O)CCC,inactive
2,CC(=O)C(C)=O,inactive
3,C=CCSCC=C,inactive
4,c1ccc(Oc2ccccc2)cc1,inactive
5,CCCCCC(=O)O,inactive
6,COC(=O)c1ccccc1O,inactive
7,CC1COCc2cc3c(cc21)C(C)(C)C(C)C3(C)C (stereo not given),active
8,C=CCc1ccc(OC(C)=O)c(OC)c1,inactive
9,O=CCc1ccccc1,inactive
10,CC(=O)OC(C)(C)C1CC=C(C)CC1 (stereo not given),inactive
11,CC1=CCC(C(C)(C)O)CC1 (stereo not given),inactive
12,CC(C)=CCCC(C)=CC=O,inactive
13,CC(C)C(=O)O,inactive
14,CC1CCC(C(C)C)C(O)C1 (stereo not given),inactive
15,CCCCCCCCCC=O,inactive
16,COc1cc(C=O)ccc1O,inactive
17,CCCCCCCC=CC=O,inactive
18,CC(=O)OC1CC2CCC1(C)C2(C)C (stereo not given),inactive

# Tested on: T2, O10A5
# T2 sequence (whole entry): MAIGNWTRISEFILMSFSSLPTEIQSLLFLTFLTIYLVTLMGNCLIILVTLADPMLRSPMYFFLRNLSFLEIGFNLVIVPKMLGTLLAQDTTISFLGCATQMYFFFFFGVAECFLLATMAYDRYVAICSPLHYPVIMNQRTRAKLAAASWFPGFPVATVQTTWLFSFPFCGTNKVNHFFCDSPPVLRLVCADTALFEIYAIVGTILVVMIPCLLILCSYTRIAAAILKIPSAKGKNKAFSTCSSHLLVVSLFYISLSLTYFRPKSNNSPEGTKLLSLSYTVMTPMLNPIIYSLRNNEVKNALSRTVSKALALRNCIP
# Conditions: stereoisomer not certain
# Procedure, shortened: as §1
row,SMILES,odorant receptor agonist call
1,CCCCCCOC(=O)CCC,inactive
2,CC(=O)C(C)=O,inactive
3,C=CCSCC=C,inactive
4,c1ccc(Oc2ccccc2)cc1,inactive
5,CCCCCC(=O)O,inactive
6,COC(=O)c1ccccc1O,inactive
7,CC1COCc2cc3c(cc21)C(C)(C)C(C)C3(C)C (stereo not given),active
8,C=CCc1ccc(OC(C)=O)c(OC)c1,inactive
9,CCCCCC(C)=O,inactive
10,O=CCc1ccccc1,inactive
11,CC(=O)OC(C)(C)C1CC=C(C)CC1 (stereo not given),inactive
12,CC1=CCC(C(C)(C)O)CC1 (stereo not given),inactive
13,CC1=NC(C)SC1C (stereo not given),inactive
14,CC(=O)c1ccccc1,inactive
15,CCCCCOC(C)=O,inactive
16,CC(C)=CCCC(C)=CC=O,inactive
17,CC(C)C(=O)O,inactive
18,COC(=O)c1ccccc1,inactive
19,CC1CCC(C(C)C)C(O)C1 (stereo not given),inactive
20,CCCCCCCCCC=O,inactive
21,COc1cc(C=O)ccc1O,inactive
22,CCCCCCCC=CC=O,inactive
23,O=C1CCCCC1,inactive
24,CC(=O)OC1CC2CCC1(C)C2(C)C (stereo not given),inactive

# Tested on: T3, O10AD
# T3 sequence (whole entry): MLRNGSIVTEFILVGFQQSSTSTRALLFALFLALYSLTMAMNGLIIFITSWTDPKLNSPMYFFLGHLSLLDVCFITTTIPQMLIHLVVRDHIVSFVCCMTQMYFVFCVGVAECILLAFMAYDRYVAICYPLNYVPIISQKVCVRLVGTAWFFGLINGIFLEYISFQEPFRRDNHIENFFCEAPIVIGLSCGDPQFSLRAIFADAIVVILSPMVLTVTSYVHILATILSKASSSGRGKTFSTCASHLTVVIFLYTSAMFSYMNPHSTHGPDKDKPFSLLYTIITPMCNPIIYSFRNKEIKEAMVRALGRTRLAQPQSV
# Conditions: stereoisomer not certain
# Procedure, shortened: as §1
row,SMILES,odorant receptor agonist call
1,CCCCCCOC(=O)CCC,inactive
2,CC(=O)C(C)=O,inactive
3,C=CCSCC=C,inactive
4,c1ccc(Oc2ccccc2)cc1,inactive
5,CCCCCC(=O)O,inactive
6,COC(=O)c1ccccc1O,inactive
7,CC1COCc2cc3c(cc21)C(C)(C)C(C)C3(C)C (stereo not given),active
8,C=CCc1ccc(OC(C)=O)c(OC)c1,inactive
9,CCCCCC(C)=O,inactive
10,O=CCc1ccccc1,inactive
11,CC(=O)OC(C)(C)C1CC=C(C)CC1 (stereo not given),inactive
12,CC1=CCC(C(C)(C)O)CC1 (stereo not given),inactive
13,CC1=NC(C)SC1C (stereo not given),inactive
14,CC(=O)c1ccccc1,inactive
15,CCCCCOC(C)=O,inactive
16,CC(C)=CCCC(C)=CC=O,inactive
17,CC(C)C(=O)O,inactive
18,COC(=O)c1ccccc1,inactive
19,CC1CCC(C(C)C)C(O)C1 (stereo not given),active
20,CCCCCCCCCC=O,inactive
21,COc1cc(C=O)ccc1O,inactive
22,CCCCCCCC=CC=O,inactive
23,O=C1CCCCC1,inactive
24,CC(=O)OC1CC2CCC1(C)C2(C)C (stereo not given),inactive

# Tested on: T4, O10C1
# T4 sequence (whole entry): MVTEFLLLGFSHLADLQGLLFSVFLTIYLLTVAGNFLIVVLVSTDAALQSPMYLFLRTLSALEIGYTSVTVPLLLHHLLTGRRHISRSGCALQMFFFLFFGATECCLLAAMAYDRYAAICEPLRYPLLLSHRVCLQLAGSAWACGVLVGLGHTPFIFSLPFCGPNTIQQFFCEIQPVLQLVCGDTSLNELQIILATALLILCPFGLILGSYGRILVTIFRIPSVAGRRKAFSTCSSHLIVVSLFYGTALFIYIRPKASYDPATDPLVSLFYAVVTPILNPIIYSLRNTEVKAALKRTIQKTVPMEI
# Conditions: stereoisomer not certain
# Procedure, shortened: as §1
row,SMILES,odorant receptor agonist call
1,CCCCCCOC(=O)CCC,inactive
2,CC(=O)C(C)=O,inactive
3,C=CCSCC=C,inactive
4,c1ccc(Oc2ccccc2)cc1,inactive
5,CCCCCC(=O)O,inactive
6,COC(=O)c1ccccc1O,inactive
7,CC1COCc2cc3c(cc21)C(C)(C)C(C)C3(C)C (stereo not given),active
8,C=CCc1ccc(OC(C)=O)c(OC)c1,inactive
9,CCCCCC(C)=O,inactive
10,O=CCc1ccccc1,inactive
11,CC(=O)OC(C)(C)C1CC=C(C)CC1 (stereo not given),inactive
12,CC1=CCC(C(C)(C)O)CC1 (stereo not given),inactive
13,CC1=NC(C)SC1C (stereo not given),inactive
14,CC(=O)c1ccccc1,inactive
15,CCCCCOC(C)=O,inactive
16,CC(C)=CCCC(C)=CC=O,inactive
17,CC(C)C(=O)O,inactive
18,C=C(C)C1CCC2=CC(=O)CC(C)C2(C)C1 (stereo not given),inactive
19,COC(=O)c1ccccc1,inactive
20,CC1CCC(C(C)C)C(O)C1 (stereo not given),active
21,CCCCCCCCCC=O,inactive
22,COc1cc(C=O)ccc1O,inactive
23,CCCCCCCC=CC=O,inactive
24,O=C1CCCCC1,inactive
25,CC(=O)OC1CC2CCC1(C)C2(C)C (stereo not given),inactive

# Tested on: T5, O10D3
# T5 sequence (whole entry): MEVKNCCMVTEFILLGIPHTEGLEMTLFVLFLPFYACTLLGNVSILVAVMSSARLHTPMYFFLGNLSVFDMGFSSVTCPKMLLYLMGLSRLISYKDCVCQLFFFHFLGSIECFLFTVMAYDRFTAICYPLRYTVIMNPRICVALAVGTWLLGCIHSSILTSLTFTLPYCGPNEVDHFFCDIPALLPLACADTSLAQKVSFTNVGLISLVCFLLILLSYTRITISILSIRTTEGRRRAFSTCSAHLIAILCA
# Conditions: stereoisomer not certain
# Procedure, shortened: as §1
row,SMILES,odorant receptor agonist call
1,CCCCCCOC(=O)CCC,inactive
2,CC(=O)C(C)=O,inactive
3,C=CCSCC=C,inactive
4,c1ccc(Oc2ccccc2)cc1,inactive
5,CCCCCC(=O)O,inactive
6,COC(=O)c1ccccc1O,inactive
7,CC1COCc2cc3c(cc21)C(C)(C)C(C)C3(C)C (stereo not given),active
8,C=CCc1ccc(OC(C)=O)c(OC)c1,inactive
9,CCCCCC(C)=O,inactive
10,O=CCc1ccccc1,inactive
11,CC(=O)OC(C)(C)C1CC=C(C)CC1 (stereo not given),inactive
12,CC1=CCC(C(C)(C)O)CC1 (stereo not given),inactive
13,CC1=NC(C)SC1C (stereo not given),inactive
14,CC(=O)c1ccccc1,inactive
15,CCCCCOC(C)=O,inactive
16,CC(C)=CCCC(C)=CC=O,inactive
17,CC(C)C(=O)O,inactive
18,COC(=O)c1ccccc1,inactive
19,CC1CCC(C(C)C)C(O)C1 (stereo not given),inactive
20,CCCCCCCCCC=O,inactive
21,COc1cc(C=O)ccc1O,inactive
22,CCCCCCCC=CC=O,inactive
23,O=C1CCCCC1,inactive
24,CC(=O)OC1CC2CCC1(C)C2(C)C (stereo not given),inactive
